Drawing on article PMC7082817, this text covers binding for one molecule.

For this assay, the target named is EGFP-RRSPPa H485A (Photorhabdus asymbiotica ATCC43949). The assay can be described thus: affinity purification with mass spectrometry; HeLa cells transfected 16 h with pEGFP or pEGFP-RRSPPa H485A, lysed in RIPA buffer; lysate on anti-GFP magnetic beads 2 h at room temperature, washed with PBST; bands of a silver-stained SDS-PAGE gel analysed by nano LC-MS/MS.

No constants are given. Whether binding was seen depends on the method and setting. Binding seen in cells or lysates may run through a third protein. Here binding means that the protein was enriched with, or labelled near, the bait; the list need not be complete.

B1: vacuolar protein sorting-associated protein 51 (protein, UniProt Q9UID3 1-782)
chain: MAAAAAAGPSPGSGPGDSPEGPEGEAPERRRKAHGMLKLYYGLSEGEAAGRPAGPDPLDPTDLNGAHFDPEVYLDKLRRECPLAQLMDSETDMVRQIRALDSDMQTLVYENYNKFISATDTIRKMKNDFRKMEDEMDRLATNMAVITDFSARISATLQDRHERITKLAGVHALLRKLQFLFELPSRLTKCVELGAYGQAVRYQGRAQAVLQQYQHLPSFRAIQDDCQVITARLAQQLRQRFREGGSGAPEQAECVELLLALGEPAEELCEEFLAHARGRLEKELRNLEAELGPSPPAPDVLEFTDHGGSGFVGGLCQVAAAYQELFAAQGPAGAEKLAAFARQLGSRYFALVERRLAQEQGGGDNSLLVRALDRFHRRLRAPGALLAAAGLADAATEIVERVARERLGHHLQGLRAAFLGCLTDVRQALAAPRVAGKEGPGLAELLANVASSILSHIKASLAAVHLFTAKEVSFSNKPYFRGEFCSQGVREGLIVGFVHSMCQTAQSFCDSPGEKGGATPPALLLLLSRLCLDYETATISYILTLTDEQFLVQDQFPVTPVSTLCAEARETARRLLTHYVKVQGLVISQMLRKSVETRDWLSTLEPRNVRAVMKRVVEDTTAIDVQVGLLYEEGVRKAQSSDSSKRTFSVYSSSRQQGRYAPSYTPSAPMDTNLLSNIQKLFSERIDVFSPVEFNKVSVLTGIIKISLKTLLECVRLRTFGRFGLQQVQVDCHFLQLYLWRFVADEELVHLLLDEVVASAALRCPDPVPMEPSVVEVICERG
For B1, the binding entry is listed as “binds”.
